According to ChEMBL document CHEMBL3751772, “Fragments in bromodomain drug discovery” (Medchemcomm, 2015):

Molecular target: Bromodomain-containing protein 4 (Homo sapiens, UniProt O60885)
Test: Displacement of biotinylated H4(1 to 24 amino acid residues)-K5/8/12/16Ac from human N-terminal His6-tagged BRD4 bromodomain-1 expressed in Escherichia coli BL21(DE3) cells by alpha screen assay

- IC50: 2.5 µM
Structure (SMILES): Cc1cccc(Oc2nccc(-c3c(-c4ccc(F)cc4)ncn3C3CCNCC3)n2)c1C
